Record: PubChem BioAssay AID1259425 (University of Nebraska Medical Center, 2018)
Test: 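Find knockdowns that reproduce the gene expression pattern seen when KSR1 is lost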 (primary screen). System: HCT116 human colon cancer cells. Knock-down reagent: siRNA pool against human genes, 50 nM siRNA. Read-out: 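mRNA of six signature genes measured together by branched-DNA assay after 50 nM siRNA pool, blank removed, divided by geometric mean of two housekeeping genes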. Reading the numbers: BNIP3L mRNA: higher = more BNIP3L transcript after knockdown; NDRG1 mRNA: higher = more NDRG1 transcript after knockdown; BNIP3 mRNA: higher = more BNIP3 transcript after knockdown; ALDOC mRNA: higher = more ALDOC transcript after knockdown; ACSL5 mRNA: higher = more ACSL5 transcript after knockdown.
The deposit covers about 14,000 reagents; this is a random part of them. Not stated in the record: the time to read-out.

gene knocked down | BNIP3L mRNA, set 1 | NDRG1 mRNA, set 1 | BNIP3 mRNA, set 1 | ALDOC mRNA, set 1 | ACSL5 mRNA, set 1
KCNAB1 (GeneID 7881) | 0.106 | 0.192 | 0.477 | 0.0133 | 0.265
ZNF691 (GeneID 51058) | 0.132 | 0.19 | 0.567 | 0.022 | 0.0951
TMEM135 (GeneID 65084) | 0.222 | 0.146 | 0.294 | 0.0279 | 0.131
CGNL1 (GeneID 84952) | 0.0845 | 0.249 | 0.286 | 0.0453 | 0.16
AKIRIN1 (GeneID 79647) | 0.0559 | 0.147 | 0.417 | 0.0026 | 0.381
GRP (GeneID 2922) | 0.061 | 0.132 | 0.185 | 0.0335 | 0.0922
ITGB3 (GeneID 3690) | 0.0944 | 0.104 | 0.372 | 0.0248 | 0.229
CYRIA (GeneID 81553) | 0.21 | 0.173 | 0.364 | 0.0669 | 0.175
SAP30BP (GeneID 29115) | 0.122 | 0.152 | 0.299 | 0.0303 | 0.154
UQCRC1 (GeneID 7384) | 0.0668 | 0.313 | 0.142 | 0.0291 | 0.211
ZNF138 (GeneID 7697) | 0.0745 | 0.0999 | 0.226 | 0.0127 | 0.151
ANXA7 (GeneID 310) | 0.0597 | 0.231 | 0.502 | 0.0122 | 0.103
NKIRAS1 (GeneID 28512) | 0.102 | 0.299 | 0.313 | 0.0496 | 0.35
TPMT (GeneID 7172) | 0.0786 | 0.141 | 0.211 | 0.0182 | 0.189
KIR2DL4 (GeneID 3805) | 0.0675 | 0.131 | 0.293 | 0.0218 | 0.123
DOC2B (GeneID 8447) | 0.109 | 0.191 | 0.389 | 0.0156 | 0.118
CIDEC (GeneID 63924) | 0.0324 | 0.117 | 0.297 | 0.0369 | 0.387
RMC1 (GeneID 29919) | 0.111 | 0.122 | 0.296 | 0.0296 | 0.11
CENPQ (GeneID 55166) | 0.212 | 0.158 | 0.21 | 0.031 | 0.365
VN1R4 (GeneID 317703) | 0.0794 | 0.138 | 0.291 | 0.03 | 0.121
PCNT (GeneID 5116) | 0.101 | 1.49 | 0.377 | 0.0415 | 0.211
SERF1B (GeneID 728492) | 0.144 | 1.38 | 0.368 | 0.112 | 0.319
DPP6 (GeneID 1804) | 0.169 | 0.248 | 0.469 | 0.0292 | 0.208
MYO19 (GeneID 80179) | 0.106 | 0.428 | 0.414 | 0.0528 | 0.311
TRPM7 (GeneID 54822) | 0.177 | 0.172 | 0.298 | 0.0101 | 0.265
CORO2A (GeneID 7464) | 0.158 | 0.356 | 0.452 | -0.00948 | 0.773
MAGOH (GeneID 4116) | 0.107 | 0.109 | 0.369 | 0.0186 | 0.082
PEX5 (GeneID 5830) | 0.0839 | 0.255 | 0.258 | 0.0271 | 0.171
CDT1 (GeneID 81620) | 0.148 | 0.546 | 0.562 | 0.046 | 0.166
SPINK7 (GeneID 84651) | 0.264 | 0.421 | 0.404 | 0.0992 | 0.59
NDUFB1 (GeneID 4707) | 0.112 | 0.502 | 0.311 | 0.0207 | 0.165
PDX1 (GeneID 3651) | 0.0552 | 0.134 | 0.273 | 0.00405 | 0.193
AQP2 (GeneID 359) | 0.0738 | 0.0934 | 0.288 | 0.0239 | 0.113
SNAPC5 (GeneID 10302) | 0.0765 | 0.182 | 0.18 | 0.0149 | 0.0896
CNTNAP3 (GeneID 79937) | 0.207 | 0.103 | 0.315 | 0.0344 | 0.124
NFATC3 (GeneID 4775) | 0.162 | 0.101 | 0.249 | 0.0122 | 0.0936
BTN3A3 (GeneID 10384) | 0.387 | 0.24 | 0.309 | -0.0195 | 0.178
MSN (GeneID 4478) | 0.0726 | 0.0932 | 0.28 | 0.0178 | 0.101
SNRPB2 (GeneID 6629) | 0.0937 | 0.479 | 0.226 | 0.0328 | 0.127
PTPMT1 (GeneID 114971) | 0.0858 | 0.406 | 0.294 | 0.0284 | 0.306
ATG3 (GeneID 64422) | 0.111 | 0.207 | 0.228 | 0.0148 | 0.286
CSN3 (GeneID 1448) | 0.0805 | 0.281 | 0.266 | 0.0268 | 0.258
GPR162 (GeneID 27239) | 0.168 | 0.191 | 0.203 | 0.0362 | 0.178
CCND2 (GeneID 894) | 0.142 | 0.468 | 0.58 | 0.0452 | 0.138
RPS27A (GeneID 6233) | 0.145 | 0.575 | 0.345 | 0.0197 | 0.186
IL23R (GeneID 149233) | 0.0719 | 0.479 | 0.247 | 0.0242 | 0.0856
TP53TG1 (GeneID 11257) | 0.0816 | 0.267 | 0.202 | 0.0262 | 0.121
RGS17 (GeneID 26575) | 0.0589 | 0.236 | 0.342 | 0.00759 | 0.136
CCDC28B (GeneID 79140) | 0.0746 | 0.125 | 0.301 | 0.0252 | 0.167
OR5K1 (GeneID 26339) | 0.0482 | 0.139 | 0.404 | 0.0219 | 0.082

Looked up above:
Under “BNIP3L mRNA, set 1”, CDT1 (GeneID 81620) reads 0.148
Under “NDRG1 mRNA, set 1”, PDX1 (GeneID 3651) shows 0.134
UQCRC1 (GeneID 7384), NDRG1 mRNA, set 1 = 0.313
Result of AQP2 (GeneID 359) under “BNIP3L mRNA, set 1”: 0.0738
KIR2DL4 (GeneID 3805), ACSL5 mRNA, set 1: 0.123
